Reference: the supplement of paper PMC10849652
Some of the results follow.

Sequences of proteins named here, by UniProt entry; tags and fusion partners are left off. A change or cut given only in a name is not applied to a line headed by its entry.
UniProt Q13438: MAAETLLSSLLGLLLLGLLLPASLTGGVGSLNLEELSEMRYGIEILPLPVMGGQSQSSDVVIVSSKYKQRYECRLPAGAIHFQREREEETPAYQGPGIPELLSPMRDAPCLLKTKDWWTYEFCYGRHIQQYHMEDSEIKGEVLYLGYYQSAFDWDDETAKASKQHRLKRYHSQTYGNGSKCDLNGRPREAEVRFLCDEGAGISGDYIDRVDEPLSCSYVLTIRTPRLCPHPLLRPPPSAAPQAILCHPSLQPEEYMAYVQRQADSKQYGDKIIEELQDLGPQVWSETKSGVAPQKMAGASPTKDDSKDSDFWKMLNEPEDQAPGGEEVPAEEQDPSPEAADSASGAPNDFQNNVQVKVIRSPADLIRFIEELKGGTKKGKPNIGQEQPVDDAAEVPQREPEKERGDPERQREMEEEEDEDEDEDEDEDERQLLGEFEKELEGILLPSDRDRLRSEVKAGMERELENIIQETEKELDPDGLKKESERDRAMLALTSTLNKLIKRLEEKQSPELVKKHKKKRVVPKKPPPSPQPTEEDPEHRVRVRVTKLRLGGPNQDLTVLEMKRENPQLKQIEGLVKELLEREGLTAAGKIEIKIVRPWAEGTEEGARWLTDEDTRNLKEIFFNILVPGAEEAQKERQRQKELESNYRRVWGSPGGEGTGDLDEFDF
UniProt A8MXV4: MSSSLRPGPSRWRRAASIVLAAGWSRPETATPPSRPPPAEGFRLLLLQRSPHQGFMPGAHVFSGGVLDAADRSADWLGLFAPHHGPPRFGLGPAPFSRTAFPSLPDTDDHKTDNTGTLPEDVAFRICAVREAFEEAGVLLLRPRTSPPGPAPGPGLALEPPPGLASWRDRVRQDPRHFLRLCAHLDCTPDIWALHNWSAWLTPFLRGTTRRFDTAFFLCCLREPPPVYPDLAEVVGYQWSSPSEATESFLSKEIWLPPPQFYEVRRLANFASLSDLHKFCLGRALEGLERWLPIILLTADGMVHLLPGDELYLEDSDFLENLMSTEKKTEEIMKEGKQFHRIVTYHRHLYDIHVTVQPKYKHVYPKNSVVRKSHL
UniProt P11940, whole entry, looked up: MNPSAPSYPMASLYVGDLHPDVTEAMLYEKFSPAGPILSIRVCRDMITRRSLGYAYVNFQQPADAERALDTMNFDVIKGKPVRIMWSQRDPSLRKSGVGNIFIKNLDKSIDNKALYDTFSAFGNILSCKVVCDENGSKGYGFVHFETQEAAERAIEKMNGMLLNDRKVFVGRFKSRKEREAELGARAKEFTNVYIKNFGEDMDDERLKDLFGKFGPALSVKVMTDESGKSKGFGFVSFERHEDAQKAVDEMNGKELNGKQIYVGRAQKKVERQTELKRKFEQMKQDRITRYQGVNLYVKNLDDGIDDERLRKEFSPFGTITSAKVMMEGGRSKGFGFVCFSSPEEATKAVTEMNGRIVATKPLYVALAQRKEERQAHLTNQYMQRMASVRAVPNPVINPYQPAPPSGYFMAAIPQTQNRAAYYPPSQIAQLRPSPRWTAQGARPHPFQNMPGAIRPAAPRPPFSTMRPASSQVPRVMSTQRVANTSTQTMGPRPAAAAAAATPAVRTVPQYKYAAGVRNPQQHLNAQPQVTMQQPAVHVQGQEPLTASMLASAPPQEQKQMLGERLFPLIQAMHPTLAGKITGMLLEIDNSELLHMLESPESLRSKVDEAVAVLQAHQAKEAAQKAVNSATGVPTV
UniProt Q86UY8: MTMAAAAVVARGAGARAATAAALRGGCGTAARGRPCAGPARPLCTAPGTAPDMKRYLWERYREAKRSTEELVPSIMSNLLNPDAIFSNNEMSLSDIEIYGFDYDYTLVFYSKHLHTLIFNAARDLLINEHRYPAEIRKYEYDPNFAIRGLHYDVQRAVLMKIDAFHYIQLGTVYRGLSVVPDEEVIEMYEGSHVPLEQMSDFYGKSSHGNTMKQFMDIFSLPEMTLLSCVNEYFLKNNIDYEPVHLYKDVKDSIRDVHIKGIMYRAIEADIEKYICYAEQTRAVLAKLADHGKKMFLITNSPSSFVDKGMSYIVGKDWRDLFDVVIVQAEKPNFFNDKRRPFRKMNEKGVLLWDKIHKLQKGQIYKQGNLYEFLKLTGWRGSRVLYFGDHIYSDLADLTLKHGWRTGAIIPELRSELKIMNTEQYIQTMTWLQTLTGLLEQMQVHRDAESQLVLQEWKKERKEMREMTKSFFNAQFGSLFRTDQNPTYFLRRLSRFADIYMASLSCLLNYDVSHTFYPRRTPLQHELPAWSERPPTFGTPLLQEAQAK
UniProt Q96FW1, whole entry, looked up: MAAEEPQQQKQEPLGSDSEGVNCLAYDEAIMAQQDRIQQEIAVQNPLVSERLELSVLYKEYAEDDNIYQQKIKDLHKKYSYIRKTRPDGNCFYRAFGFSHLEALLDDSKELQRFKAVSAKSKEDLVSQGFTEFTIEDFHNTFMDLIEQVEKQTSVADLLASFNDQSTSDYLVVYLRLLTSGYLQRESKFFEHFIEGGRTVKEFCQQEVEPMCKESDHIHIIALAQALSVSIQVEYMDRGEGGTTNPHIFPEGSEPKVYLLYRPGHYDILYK
UniProt Q32P28: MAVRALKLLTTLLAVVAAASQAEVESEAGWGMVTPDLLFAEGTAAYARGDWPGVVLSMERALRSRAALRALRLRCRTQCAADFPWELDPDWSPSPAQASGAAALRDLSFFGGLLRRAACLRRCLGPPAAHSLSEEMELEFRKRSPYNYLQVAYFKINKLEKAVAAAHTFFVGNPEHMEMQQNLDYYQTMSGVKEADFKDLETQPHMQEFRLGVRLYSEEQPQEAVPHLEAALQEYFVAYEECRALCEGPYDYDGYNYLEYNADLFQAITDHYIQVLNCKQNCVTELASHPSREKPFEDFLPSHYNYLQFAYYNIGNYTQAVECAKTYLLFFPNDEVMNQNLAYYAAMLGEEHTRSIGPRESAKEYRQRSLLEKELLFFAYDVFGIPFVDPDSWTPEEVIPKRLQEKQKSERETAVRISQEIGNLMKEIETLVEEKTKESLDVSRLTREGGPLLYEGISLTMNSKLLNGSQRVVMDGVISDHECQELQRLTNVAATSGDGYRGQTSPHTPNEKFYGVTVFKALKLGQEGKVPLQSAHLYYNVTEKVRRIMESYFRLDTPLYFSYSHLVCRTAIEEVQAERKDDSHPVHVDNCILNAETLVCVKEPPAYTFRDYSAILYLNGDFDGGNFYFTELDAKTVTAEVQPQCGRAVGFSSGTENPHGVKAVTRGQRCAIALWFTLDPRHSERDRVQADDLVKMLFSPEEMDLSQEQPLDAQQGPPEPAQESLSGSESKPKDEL
UniProt Q99567: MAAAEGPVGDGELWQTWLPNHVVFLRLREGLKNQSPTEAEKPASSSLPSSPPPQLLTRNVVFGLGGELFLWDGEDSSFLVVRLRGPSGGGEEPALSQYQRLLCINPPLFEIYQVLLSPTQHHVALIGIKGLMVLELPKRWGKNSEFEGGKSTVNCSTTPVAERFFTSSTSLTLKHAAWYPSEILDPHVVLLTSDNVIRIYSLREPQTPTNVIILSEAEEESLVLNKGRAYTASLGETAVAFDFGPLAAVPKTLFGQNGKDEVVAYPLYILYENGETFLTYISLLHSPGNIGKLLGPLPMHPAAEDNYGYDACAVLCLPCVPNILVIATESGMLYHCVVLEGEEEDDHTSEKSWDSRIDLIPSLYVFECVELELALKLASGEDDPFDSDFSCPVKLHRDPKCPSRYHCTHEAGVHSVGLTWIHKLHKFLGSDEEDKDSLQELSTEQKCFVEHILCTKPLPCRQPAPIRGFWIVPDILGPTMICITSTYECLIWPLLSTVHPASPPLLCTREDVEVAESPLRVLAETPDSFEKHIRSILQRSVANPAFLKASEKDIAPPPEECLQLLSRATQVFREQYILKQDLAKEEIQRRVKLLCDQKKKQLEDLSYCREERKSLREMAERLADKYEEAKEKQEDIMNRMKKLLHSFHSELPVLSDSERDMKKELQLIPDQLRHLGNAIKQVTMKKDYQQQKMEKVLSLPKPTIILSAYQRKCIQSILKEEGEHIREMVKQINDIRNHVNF
UniProt Q9NZJ9: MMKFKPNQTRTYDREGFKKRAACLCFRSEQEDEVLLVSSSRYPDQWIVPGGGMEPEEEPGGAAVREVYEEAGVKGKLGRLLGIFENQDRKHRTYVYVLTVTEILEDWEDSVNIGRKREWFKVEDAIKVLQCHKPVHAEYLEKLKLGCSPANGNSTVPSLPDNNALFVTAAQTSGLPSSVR
UniProt O43482, whole entry, looked up: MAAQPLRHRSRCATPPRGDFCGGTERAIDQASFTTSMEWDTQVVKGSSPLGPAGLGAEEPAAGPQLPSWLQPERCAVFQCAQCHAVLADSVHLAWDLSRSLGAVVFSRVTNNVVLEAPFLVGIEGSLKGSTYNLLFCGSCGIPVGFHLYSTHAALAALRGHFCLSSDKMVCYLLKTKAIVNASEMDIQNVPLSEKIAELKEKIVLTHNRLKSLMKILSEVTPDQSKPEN
UniProt Q9NTK5, whole entry, looked up: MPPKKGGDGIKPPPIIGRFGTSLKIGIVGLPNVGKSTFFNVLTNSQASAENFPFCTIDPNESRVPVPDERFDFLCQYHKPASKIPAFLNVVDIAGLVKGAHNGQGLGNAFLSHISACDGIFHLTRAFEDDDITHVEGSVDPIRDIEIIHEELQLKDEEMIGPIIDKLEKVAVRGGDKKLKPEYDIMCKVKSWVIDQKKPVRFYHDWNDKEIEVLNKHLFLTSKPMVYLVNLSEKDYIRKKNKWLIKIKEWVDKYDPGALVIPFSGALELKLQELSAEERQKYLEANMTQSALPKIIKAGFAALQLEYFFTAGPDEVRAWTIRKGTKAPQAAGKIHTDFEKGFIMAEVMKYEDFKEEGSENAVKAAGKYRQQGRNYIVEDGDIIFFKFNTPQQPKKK
UniProt Q9Y5A7: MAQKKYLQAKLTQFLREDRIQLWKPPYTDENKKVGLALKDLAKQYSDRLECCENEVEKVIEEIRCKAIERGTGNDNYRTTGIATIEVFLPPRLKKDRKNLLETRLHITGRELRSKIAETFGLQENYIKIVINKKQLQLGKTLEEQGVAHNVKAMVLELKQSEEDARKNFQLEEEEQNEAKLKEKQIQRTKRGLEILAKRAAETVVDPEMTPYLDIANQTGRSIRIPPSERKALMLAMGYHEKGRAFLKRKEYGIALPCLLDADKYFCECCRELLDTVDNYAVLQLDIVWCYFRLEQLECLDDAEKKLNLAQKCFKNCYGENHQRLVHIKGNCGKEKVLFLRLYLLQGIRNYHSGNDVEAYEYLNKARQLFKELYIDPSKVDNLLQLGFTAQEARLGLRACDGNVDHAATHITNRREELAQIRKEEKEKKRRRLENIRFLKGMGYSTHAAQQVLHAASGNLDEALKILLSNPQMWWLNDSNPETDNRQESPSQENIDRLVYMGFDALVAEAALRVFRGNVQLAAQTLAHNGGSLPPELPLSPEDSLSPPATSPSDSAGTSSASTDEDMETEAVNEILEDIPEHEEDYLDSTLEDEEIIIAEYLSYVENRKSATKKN
UniProt Q02218: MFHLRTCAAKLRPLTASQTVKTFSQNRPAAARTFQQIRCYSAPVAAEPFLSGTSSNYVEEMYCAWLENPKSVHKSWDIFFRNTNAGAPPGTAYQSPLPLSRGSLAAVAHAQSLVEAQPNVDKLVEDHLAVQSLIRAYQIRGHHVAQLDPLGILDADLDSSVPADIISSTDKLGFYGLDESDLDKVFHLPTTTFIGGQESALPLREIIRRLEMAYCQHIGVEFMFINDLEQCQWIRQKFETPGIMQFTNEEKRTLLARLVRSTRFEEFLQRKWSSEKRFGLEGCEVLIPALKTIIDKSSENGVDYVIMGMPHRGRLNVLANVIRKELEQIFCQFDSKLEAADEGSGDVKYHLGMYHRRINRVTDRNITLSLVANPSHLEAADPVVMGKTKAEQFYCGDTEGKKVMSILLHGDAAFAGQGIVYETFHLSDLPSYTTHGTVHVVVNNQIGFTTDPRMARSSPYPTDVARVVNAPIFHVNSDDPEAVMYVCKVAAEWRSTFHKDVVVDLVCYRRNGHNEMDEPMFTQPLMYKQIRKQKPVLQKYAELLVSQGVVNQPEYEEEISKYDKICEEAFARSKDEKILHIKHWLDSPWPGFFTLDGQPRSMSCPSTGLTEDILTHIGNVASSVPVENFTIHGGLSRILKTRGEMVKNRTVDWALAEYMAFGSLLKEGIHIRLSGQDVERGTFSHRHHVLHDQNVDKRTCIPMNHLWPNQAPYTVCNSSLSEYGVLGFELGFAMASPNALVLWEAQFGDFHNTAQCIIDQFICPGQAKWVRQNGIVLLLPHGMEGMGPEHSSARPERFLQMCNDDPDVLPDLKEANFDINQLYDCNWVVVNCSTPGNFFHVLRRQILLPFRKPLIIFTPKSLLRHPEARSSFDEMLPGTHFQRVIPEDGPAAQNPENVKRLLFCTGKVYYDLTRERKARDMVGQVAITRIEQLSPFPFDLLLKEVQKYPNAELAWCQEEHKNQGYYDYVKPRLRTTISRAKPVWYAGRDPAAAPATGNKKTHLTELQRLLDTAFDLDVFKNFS
UniProt P61970, whole entry, looked up: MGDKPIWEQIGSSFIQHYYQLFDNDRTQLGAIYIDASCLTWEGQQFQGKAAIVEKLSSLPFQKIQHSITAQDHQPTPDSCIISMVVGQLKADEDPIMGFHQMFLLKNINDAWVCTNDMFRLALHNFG

Each target was assayed with COc1cc(Nc2ncc3c(n2)-c2ccc(Cl)cc2C(c2c(F)cccc2OC)=NC3)ccc1C(=O)O [alisertib] (assay: log2 fold change, soluble protein after heating vs DMSO (PISA); higher = thermal stabilisation; K562 cells, 10 uM, 30 min; active = over 0.2 and 3.5 SD of the protein, either way, in both replicates (recomputed)).
Method in brief: (§1)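 Aliquots of K562 cells (2×10^6 cells/mL) treated with 10 μM compound for 30 min were heated for 3 min over 48°C-58°C. After pooling and extraction in PBS with 0.5% NP-40 at 4°C, soluble protein from a 21,000xg, 90 min spin was quantified by TMTpro 16plex LC-MS/MS with channel sums equalised. Thermal stability is expressed against control samples, from duplicates, as a log2 fold change.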

log2 fold change, inactive:
NT5C2 (UniProt P49902) -0.115, ORC4 (UniProt O43929) 0.069, NUDT16L1 (UniProt Q9BRJ7) -0.087, OS9 (UniProt Q13438) -0.047, NUDT19 (UniProt A8MXV4) -0.056, PABPC1 (UniProt P11940) -0.066, NT5DC3 (UniProt Q86UY8) -0.109, NUP37 (UniProt Q8NFH4) 0.033, OPTN (UniProt Q96CV9) 0.354, NUP43 (UniProt Q8NFH3) -0.148, OTUD7B (UniProt Q6GQQ9) 0.097, NSUN6 (UniProt Q8TEA1) -0.012, NUP153 (UniProt P49790) -0.043, P4HA1 (UniProt P13674) -0.114, OTUB1 (UniProt Q96FW1) -0.09, P3H1 (UniProt Q32P28) -0.128, NUP88 (UniProt Q99567) -0.095, OSTF1 (UniProt Q92882) -0.04, NUDT4 (UniProt Q9NZJ9) -0.055, NUSAP1 (UniProt Q9BXS6) 0.057, OIP5 (UniProt O43482) 0.022, OLA1 (UniProt Q9NTK5) -0.042, NUB1 (UniProt Q9Y5A7) -0.088, NUBP2 (UniProt Q9Y5Y2) -0.159, OGFOD3 isoform 2 (UniProt Q6PK18) 0.069, NUS1 (UniProt Q96E22) 0.008, NUBPL (UniProt Q8TB37) -0.068, NUP42 (UniProt O15504) 0.025, OGDH (UniProt Q02218) -0.071, P4HA1 isoform 2 (UniProt P13674) -0.155, NT5DC2 isoform 2 (UniProt Q9H857) -0.076, NUTF2 (UniProt P61970) -0.055

Each target was assayed with COc1cc2nc(-c3cc(F)ccc3O)nc(N[C@@H]3CNC[C@H]3C(C)(C)O)c2cc1OC in the same assay as above.
Method in brief: as §1

log2 fold change, inactive:
NT5C2 (UniProt P49902) 0.023, ORC4 (UniProt O43929) -0.058, NUDT16L1 (UniProt Q9BRJ7) 0.061, OS9 (UniProt Q13438) -0.014, NUDT19 (UniProt A8MXV4) 0.058, PABPC1 (UniProt P11940) -0.008, NT5DC3 (UniProt Q86UY8) 0.045, NUP37 (UniProt Q8NFH4) 0.006, OPTN (UniProt Q96CV9) 0.022, NUP43 (UniProt Q8NFH3) -0.011, OTUD7B (UniProt Q6GQQ9) 0.194, NSUN6 (UniProt Q8TEA1) -0.082, NUP153 (UniProt P49790) -0.05, P4HA1 (UniProt P13674) -0.016, OTUB1 (UniProt Q96FW1) -0.021, P3H1 (UniProt Q32P28) -0.021, NUP88 (UniProt Q99567) 0.108, OSTF1 (UniProt Q92882) 0.061, NUDT4 (UniProt Q9NZJ9) 0.011, NUSAP1 (UniProt Q9BXS6) -0.03, OIP5 (UniProt O43482) -0.029, OLA1 (UniProt Q9NTK5) 0.003, NUB1 (UniProt Q9Y5A7) -0.12, NUBP2 (UniProt Q9Y5Y2) 0.041, OGFOD3 isoform 2 (UniProt Q6PK18) 0.048, NUS1 (UniProt Q96E22) 0.057, NUBPL (UniProt Q8TB37) -0.142, NUP42 (UniProt O15504) 0.041, OGDH (UniProt Q02218) -0.027, P4HA1 isoform 2 (UniProt P13674) 0.059, NT5DC2 isoform 2 (UniProt Q9H857) 0.015, NUTF2 (UniProt P61970) -0.097

What follows are targets tested with COc1cc2ncnc(Nc3ccc(F)c(Cl)c3)c2cc1OCCCN1CCOCC1 [gefitinib] in the same assay as above.
Method in brief: as §1

log2 fold change, inactive:
NT5C2 (UniProt P49902) -0.001, ORC4 (UniProt O43929) -0.002, NUDT16L1 (UniProt Q9BRJ7) -0.009, OS9 (UniProt Q13438) 0.015, NUDT19 (UniProt A8MXV4) 0.036, PABPC1 (UniProt P11940) -0.045, NT5DC3 (UniProt Q86UY8) -0.005, NUP37 (UniProt Q8NFH4) -0.012, OPTN (UniProt Q96CV9) -0.024, NUP43 (UniProt Q8NFH3) 0.015, OTUD7B (UniProt Q6GQQ9) 0.331, NSUN6 (UniProt Q8TEA1) 0.046, NUP153 (UniProt P49790) -0.01, P4HA1 (UniProt P13674) -0.025, OTUB1 (UniProt Q96FW1) -0.019, P3H1 (UniProt Q32P28) 0.002, NUP88 (UniProt Q99567) -0.015, OSTF1 (UniProt Q92882) 0.063, NUDT4 (UniProt Q9NZJ9) 0.03, NUSAP1 (UniProt Q9BXS6) -0.006, OIP5 (UniProt O43482) -0.051, OLA1 (UniProt Q9NTK5) -0.005, NUB1 (UniProt Q9Y5A7) 0.068, NUBP2 (UniProt Q9Y5Y2) -0.012, OGFOD3 isoform 2 (UniProt Q6PK18) -0.022, NUS1 (UniProt Q96E22) 0.023, NUBPL (UniProt Q8TB37) 0.076, NUP42 (UniProt O15504) -0.032, OGDH (UniProt Q02218) -0.033, P4HA1 isoform 2 (UniProt P13674) -0.004, NT5DC2 isoform 2 (UniProt Q9H857) 0.017, NUTF2 (UniProt P61970) 0.084
